Results published in the supplement of paper PMC10849652.
The other results are listed elsewhere or left out.

By UniProt entry, the sequences of proteins in these tests, tags left out. Where a name states a change or a piece, a line headed by the entry shows the natural chain unless it says otherwise.
UniProt Q0VGE8: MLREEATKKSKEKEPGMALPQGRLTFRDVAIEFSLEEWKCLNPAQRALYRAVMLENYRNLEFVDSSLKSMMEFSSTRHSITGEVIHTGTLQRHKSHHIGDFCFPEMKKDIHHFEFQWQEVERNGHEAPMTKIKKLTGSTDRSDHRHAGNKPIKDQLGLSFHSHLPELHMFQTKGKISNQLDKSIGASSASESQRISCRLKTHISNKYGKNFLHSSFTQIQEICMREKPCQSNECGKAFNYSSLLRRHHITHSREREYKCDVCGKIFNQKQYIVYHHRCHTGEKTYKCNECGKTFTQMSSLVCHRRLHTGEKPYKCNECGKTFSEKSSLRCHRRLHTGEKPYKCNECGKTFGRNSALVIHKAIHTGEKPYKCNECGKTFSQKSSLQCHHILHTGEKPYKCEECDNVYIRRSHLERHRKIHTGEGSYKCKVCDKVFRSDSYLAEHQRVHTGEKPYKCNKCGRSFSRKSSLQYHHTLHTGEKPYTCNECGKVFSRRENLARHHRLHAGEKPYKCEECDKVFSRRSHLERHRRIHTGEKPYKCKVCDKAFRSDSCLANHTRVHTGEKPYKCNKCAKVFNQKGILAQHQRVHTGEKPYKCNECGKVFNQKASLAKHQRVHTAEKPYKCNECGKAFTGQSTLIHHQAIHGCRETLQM
UniProt Q8IZC7: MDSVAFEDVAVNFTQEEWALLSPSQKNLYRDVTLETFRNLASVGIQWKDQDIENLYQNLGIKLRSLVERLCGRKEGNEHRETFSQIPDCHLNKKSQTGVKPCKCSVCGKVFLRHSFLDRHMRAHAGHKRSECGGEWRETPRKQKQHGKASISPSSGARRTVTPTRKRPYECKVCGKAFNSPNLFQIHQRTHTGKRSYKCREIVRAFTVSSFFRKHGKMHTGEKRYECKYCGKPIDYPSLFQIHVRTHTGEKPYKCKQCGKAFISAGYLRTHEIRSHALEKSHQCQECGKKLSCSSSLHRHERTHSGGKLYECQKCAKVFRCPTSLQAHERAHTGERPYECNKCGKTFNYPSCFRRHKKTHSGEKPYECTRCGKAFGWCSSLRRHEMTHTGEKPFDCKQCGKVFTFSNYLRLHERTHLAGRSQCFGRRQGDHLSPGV
UniProt Q8NHG8: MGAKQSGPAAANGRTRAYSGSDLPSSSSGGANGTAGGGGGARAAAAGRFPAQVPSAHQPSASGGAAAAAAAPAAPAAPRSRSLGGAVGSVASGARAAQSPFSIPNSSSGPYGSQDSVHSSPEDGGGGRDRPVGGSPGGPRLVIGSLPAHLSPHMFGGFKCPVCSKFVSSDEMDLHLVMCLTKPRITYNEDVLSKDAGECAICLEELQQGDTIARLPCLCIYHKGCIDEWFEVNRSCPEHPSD
UniProt Q6NUN9: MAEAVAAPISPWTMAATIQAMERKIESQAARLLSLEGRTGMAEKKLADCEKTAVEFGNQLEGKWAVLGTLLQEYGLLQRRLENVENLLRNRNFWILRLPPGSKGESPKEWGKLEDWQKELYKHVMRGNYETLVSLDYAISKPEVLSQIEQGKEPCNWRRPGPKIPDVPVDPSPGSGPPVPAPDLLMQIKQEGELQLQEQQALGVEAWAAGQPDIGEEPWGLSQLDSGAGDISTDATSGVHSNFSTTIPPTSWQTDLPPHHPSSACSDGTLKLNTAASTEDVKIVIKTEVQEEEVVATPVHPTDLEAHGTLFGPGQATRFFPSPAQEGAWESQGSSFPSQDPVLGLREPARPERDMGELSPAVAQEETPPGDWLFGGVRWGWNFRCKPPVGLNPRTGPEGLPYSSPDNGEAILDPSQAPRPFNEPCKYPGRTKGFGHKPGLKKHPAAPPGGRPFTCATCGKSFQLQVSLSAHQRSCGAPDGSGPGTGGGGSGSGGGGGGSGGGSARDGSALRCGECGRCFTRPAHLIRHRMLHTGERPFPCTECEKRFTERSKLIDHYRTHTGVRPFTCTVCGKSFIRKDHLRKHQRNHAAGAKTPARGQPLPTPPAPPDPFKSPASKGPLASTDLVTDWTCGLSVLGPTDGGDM
UniProt Q96MX3: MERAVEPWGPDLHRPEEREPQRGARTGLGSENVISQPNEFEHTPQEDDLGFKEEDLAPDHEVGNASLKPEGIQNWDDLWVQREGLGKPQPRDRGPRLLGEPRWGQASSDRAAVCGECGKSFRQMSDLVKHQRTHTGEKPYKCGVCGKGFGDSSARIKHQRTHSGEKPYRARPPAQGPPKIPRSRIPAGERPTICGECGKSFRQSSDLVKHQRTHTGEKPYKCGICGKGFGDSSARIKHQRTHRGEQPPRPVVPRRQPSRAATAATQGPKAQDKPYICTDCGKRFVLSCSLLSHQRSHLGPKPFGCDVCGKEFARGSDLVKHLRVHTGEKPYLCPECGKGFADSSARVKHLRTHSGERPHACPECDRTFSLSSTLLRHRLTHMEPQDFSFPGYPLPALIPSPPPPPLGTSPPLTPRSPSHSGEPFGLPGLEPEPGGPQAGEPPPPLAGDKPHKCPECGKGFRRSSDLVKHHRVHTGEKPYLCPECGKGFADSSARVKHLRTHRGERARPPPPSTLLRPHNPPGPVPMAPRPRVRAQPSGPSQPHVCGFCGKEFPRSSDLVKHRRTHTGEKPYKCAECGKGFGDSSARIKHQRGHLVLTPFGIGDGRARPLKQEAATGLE
UniProt Q8N720: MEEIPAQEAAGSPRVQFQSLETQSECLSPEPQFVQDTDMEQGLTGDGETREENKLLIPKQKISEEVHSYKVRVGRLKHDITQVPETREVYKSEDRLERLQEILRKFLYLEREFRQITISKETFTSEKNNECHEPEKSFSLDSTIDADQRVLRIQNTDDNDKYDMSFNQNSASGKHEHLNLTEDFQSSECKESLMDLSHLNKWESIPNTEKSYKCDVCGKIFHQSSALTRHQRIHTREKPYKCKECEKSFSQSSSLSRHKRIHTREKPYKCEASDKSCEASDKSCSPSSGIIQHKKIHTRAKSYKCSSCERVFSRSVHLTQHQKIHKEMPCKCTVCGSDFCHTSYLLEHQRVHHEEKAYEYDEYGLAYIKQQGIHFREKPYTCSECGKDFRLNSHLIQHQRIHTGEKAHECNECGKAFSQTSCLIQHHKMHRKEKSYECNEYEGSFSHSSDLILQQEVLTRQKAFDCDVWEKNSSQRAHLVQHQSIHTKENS
UniProt Q14592: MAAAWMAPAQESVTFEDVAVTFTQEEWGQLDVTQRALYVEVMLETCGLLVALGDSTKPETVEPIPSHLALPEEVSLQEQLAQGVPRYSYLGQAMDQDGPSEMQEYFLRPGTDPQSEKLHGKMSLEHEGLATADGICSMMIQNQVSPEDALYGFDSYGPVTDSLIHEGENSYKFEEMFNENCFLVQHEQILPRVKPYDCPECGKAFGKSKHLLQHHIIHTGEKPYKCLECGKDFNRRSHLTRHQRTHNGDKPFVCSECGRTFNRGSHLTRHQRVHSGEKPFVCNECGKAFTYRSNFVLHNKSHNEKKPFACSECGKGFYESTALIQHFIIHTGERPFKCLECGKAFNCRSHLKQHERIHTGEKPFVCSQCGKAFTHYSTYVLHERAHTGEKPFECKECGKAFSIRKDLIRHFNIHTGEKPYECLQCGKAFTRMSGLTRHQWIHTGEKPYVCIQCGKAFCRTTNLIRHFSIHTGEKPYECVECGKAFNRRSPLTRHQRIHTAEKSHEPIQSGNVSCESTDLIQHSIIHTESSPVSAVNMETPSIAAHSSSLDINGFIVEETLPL
UniProt Q96KM6: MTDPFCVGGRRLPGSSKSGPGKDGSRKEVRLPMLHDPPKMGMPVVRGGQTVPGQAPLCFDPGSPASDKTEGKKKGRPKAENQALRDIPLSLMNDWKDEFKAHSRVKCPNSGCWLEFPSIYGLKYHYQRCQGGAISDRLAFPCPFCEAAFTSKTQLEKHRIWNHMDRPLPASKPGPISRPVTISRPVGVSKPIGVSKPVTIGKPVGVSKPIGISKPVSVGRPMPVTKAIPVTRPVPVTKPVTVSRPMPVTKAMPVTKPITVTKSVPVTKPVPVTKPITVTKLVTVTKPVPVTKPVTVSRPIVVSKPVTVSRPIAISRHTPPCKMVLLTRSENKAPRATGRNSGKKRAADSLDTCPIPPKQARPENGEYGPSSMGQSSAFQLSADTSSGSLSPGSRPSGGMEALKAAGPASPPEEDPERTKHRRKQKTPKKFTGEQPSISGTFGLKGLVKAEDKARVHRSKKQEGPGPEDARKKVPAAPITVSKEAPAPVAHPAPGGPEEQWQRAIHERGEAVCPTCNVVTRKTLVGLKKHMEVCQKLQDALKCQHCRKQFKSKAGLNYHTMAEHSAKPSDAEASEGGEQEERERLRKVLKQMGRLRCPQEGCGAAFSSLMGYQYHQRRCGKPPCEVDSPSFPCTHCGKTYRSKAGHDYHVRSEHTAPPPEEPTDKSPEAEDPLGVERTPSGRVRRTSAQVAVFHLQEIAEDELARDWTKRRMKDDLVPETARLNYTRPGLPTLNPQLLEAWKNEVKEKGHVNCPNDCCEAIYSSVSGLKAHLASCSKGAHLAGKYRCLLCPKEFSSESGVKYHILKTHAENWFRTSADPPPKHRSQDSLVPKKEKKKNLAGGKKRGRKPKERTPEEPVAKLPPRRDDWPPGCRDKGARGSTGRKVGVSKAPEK
UniProt Q9UJN7: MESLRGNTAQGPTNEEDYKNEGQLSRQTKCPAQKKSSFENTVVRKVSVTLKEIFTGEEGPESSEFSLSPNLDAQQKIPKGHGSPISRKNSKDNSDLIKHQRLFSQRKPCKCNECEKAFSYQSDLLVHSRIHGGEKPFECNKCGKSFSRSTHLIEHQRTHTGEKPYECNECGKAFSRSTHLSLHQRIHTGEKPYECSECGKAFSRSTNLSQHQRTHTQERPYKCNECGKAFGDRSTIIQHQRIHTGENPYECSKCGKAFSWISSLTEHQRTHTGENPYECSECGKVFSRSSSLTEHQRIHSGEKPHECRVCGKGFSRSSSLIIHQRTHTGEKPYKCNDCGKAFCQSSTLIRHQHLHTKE
UniProt Q8N4W9: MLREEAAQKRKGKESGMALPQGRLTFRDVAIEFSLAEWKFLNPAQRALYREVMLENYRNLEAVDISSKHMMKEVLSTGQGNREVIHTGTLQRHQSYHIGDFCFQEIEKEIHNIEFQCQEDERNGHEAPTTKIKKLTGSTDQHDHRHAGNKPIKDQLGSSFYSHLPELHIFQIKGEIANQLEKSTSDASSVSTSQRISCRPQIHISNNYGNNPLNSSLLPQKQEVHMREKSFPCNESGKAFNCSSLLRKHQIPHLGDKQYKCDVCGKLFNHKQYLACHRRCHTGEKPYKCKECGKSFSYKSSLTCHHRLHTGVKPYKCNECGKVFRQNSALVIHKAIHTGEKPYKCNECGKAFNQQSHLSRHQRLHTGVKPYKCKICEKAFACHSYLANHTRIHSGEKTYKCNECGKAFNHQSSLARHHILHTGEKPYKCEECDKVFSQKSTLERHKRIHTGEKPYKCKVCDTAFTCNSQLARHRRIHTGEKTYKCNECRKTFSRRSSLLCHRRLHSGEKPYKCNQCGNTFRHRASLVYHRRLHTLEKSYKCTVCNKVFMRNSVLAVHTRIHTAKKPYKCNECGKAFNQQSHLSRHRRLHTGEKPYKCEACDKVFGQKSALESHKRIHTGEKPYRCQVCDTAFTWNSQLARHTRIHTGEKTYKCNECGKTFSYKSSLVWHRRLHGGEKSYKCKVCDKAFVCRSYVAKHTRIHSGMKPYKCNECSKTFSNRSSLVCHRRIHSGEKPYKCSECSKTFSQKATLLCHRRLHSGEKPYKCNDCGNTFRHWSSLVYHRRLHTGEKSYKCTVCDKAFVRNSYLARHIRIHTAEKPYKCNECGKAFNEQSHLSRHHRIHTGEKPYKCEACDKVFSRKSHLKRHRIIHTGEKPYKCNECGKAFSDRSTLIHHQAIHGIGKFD
UniProt Q9BU19: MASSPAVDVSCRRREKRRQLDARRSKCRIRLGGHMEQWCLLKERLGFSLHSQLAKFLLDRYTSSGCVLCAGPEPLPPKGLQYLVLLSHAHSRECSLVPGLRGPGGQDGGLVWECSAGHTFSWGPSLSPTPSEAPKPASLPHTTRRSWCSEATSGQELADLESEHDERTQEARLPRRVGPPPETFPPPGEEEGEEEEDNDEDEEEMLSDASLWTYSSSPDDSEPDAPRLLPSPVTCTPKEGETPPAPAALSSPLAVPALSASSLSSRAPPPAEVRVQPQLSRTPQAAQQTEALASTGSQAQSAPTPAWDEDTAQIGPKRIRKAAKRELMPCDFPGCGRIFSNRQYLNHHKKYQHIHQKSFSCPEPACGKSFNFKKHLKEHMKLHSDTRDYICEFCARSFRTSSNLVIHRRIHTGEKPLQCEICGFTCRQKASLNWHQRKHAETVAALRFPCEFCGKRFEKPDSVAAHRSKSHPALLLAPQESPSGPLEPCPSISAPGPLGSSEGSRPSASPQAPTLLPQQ

Columns and labels:
Assay in all cases: log2 fold change, soluble protein after heating vs DMSO (PISA); higher = thermal stabilisation; K562 lysate, 10 uM; active = over 0.2 and 3.5 SD of the protein, either way, in both replicates (recomputed)
[1] = compound: C1=CC=C(C=C1)C2=NC(=C(N2)C3=CC=NC=C3)C4=CC(=C(C=C4)Cl)O
Method in brief: (§1)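 A 30 min treatment with 10 μM compound was applied to crude K562 extract at 1 mg/mL protein in PBS pH 7.4 with 1 mM MgCl2. Heating for 3 min spanned 48°C-58°C, after which aliquots were pooled, adjusted to 0.5% NP-40 at 4°C and spun at 21,000xg for 90 min. TMTpro 16plex LC-MS/MS of the supernatant, with channel sums equalised, gave values recorded as log-two fold change in thermal stability against solvent controls, from duplicates.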

IRAK-1-4 Inhibitor I = compound: C1COCCN1CCN2C3=CC=CC=C3N=C2NC(=O)C4=CC(=CC=C4)[N+](=O)[O-] [IRAK-1-4 Inhibitor I]
Method in brief: as §1

erlotinib = compound: C#Cc1cccc(Nc2ncnc3cc(OCCOC)c(OCCOC)cc23)c1 [erlotinib]
Method in brief: as §1

[2] = compound: C1=CC(=CC=C1C2=NC3=C(N2)C=C(C=C3)C(=O)N)OC4=CC=C(C=C4)Cl
Method in brief: as §1

[3] = compound: C/C(=N\NC(=O)C1=CC(=CC=C1)S(=O)(=O)N2CCOCC2)/C3=C(C=CC(=C3)Cl)O
Method in brief: as §1

[4] = compound: C1=CC2=C(C=CC(=C2)/C=C\3/C(=O)NC(=NCC4=CC=CS4)S3)N=C1
Method in brief: as §1

[5] = compound: C1=CC2=NC=CN=C2C=C1/C=C/3\C(=O)NC(=O)S3
Method in brief: as §1

[6] = compound: C1=CC=C2C(=C1)C3=NNC4=CC=CC(=C43)C2=O
Method in brief: as §1

[7] = compound: C1CCN(C1)C(=O)NC2=CC=CC(=C2)NC3=NC=C(C(=N3)NCCC4=CN=CN4)Br
Method in brief: as §1

[8] = compound: C1CN(CCC1(CC2=CC=C(C=C2)Cl)N)C3=NC=NC4=C3C=CN4
Method in brief: as §1

Measured: log2 fold change

ZNF816 (UniProt Q0VGE8)
inactive: [1] 0.013 | IRAK-1-4 Inhibitor I -0.068

ZNF101 (UniProt Q8IZC7)
inactive: erlotinib -0.515 | [2] -0.254 | [1] -0.141 | IRAK-1-4 Inhibitor I -0.066

ZNF280D (UniProt Q6N043)
inactive: [1] 0.031 | IRAK-1-4 Inhibitor I -0.139

ZNRF2 (UniProt Q8NHG8)
inactive: [3] -0.015 | [4] -0.02 | [5] 0.142 | [1] -0.046 | [6] 0.082 | [7] -0.018 | [8] -0.034 | IRAK-1-4 Inhibitor I -0.013

ZNF746 isoform 2 (UniProt Q6NUN9)
inactive: [1] -0.034 | IRAK-1-4 Inhibitor I 0.184

ZNF48 (UniProt Q96MX3)
inactive: [7] 0.114 | [8] -0.035

ZNF655 isoform 3 (UniProt Q8N720)
inactive: [7] 0.011 | [8] -0.078

ZNF618 (UniProt B1ALC2)
inactive: [3] -0.036 | [4] 0.065 | [6] -0.09 | [7] -0.027 | [8] 0.052

ZNF460 (UniProt Q14592)
inactive: [3] 0.143 | [4] 0.095 | [5] 0.075 | [6] 0.063 | [7] -0.006 | [8] 0.326

ZNF512B (UniProt Q96KM6)
inactive: [1] -0.016 | IRAK-1-4 Inhibitor I -0.007

ZNF391 (UniProt Q9UJN7)
inactive: [7] -0.063 | [8] 0.177

ZNF808 (UniProt Q8N4W9)
inactive: [1] 0.166 | IRAK-1-4 Inhibitor I 0.235

ZNF692 isoform 5 (UniProt Q9BU19)
inactive: [3] 0.136 | [4] 0.071 | [6] -0.079

Taken from the listing (2 entries):
ZNF808 (UniProt Q8N4W9)
inactive: [1] 0.166 | IRAK-1-4 Inhibitor I 0.235

ZNF692 isoform 5 (UniProt Q9BU19)
inactive: [3] 0.136 | [4] 0.071 | [6] -0.079
